PubChem BioAssay AID743255 (National Center for Advancing Translational Sciences (NCATS), 2014)
About 910 (0.23%) of roughly 390,000 compounds were called active. The inconclusive results got no clear call from the source; some entries with a clear call stand among them for comparison. Calls follow the shape of the dose curve; as a rule, active = well fitted inhibition curve with a large enough effect; inconclusive = small, poorly fitted or top-dose-only effect; inactive = no such curve, though single readings can be large or run the other way. Potencies beside an inconclusive call are fits to weak or partial responses and may not hold up.

By UniProt entry, the sequences of proteins in these tests, tags left out. Where a name states a change or a piece, a line headed by the entry shows the natural chain unless it says otherwise.
UniProt O94782: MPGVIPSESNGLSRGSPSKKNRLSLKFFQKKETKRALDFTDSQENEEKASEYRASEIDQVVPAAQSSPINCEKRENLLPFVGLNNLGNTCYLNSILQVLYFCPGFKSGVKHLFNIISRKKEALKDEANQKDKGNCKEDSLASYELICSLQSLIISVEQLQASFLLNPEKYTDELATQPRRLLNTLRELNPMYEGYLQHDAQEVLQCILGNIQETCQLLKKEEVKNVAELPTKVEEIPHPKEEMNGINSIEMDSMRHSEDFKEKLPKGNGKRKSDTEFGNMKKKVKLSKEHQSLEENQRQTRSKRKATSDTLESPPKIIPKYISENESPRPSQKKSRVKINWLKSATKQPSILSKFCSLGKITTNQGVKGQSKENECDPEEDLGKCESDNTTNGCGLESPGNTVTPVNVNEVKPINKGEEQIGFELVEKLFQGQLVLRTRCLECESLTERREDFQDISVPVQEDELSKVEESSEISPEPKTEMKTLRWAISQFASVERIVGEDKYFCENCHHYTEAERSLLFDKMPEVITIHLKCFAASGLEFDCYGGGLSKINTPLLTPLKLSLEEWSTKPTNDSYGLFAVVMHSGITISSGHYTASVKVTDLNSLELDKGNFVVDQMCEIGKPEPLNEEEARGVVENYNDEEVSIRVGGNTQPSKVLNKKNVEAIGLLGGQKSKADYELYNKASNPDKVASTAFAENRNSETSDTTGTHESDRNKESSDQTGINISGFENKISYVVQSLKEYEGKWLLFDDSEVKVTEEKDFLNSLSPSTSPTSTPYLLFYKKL

target: Ubiquitin carboxyl-terminal hydrolase 1 (Homo sapiens) (UniProt O94782); experiment: Inhibitors of USP1/UAF1: Primary Screen; conditions: recombinant USP1/UAF1, Ub-Rhodamine cleavage fluorescence; activity change, negative = inhibition: at 57.1 µM (top of the series); also: nearly all actives have a fitted effect of over 60% in size
In short: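 1 nM enzyme complex + cpd, 15 min RT; start with Ub-Rho 150nM final; kinetic fluorescence ex 480/em 540, 6 reads q60 s. Buffer 50mM HEPES pH 7.8, 0.5mM EDTA, 0.1 mg/ml BSA, 1mM TCEP, 0.01% Tween-20.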
% is scaled to controls: 0 for no effect and ±100 for the full control effect; potency is read from the fitted curve at half-maximal effect.

Row | Structure (SMILES) | Potency | activity change, negative = inhibition
1 | C[C@]12CCC3C(CC[C@H]4CC(=O)CC[C@]34C)C1CCC2=O (some centres not stated) | inconclusive: 39.8 µM [inhibitor, single point] | 
2 | C#C[C@@]1(O)CCC2C3CCC4=C/C(=N/OCC(=O)NC(C(=O)NC(CC(C)C)C(=O)O)C(C)C)CC[C@]4(C)C3CC[C@@]21C (some centres not stated) | inconclusive: 5.01 µM [inhibitor, full curve, poor fit] | 
3 | COC(=O)C1=C(c2ccc(F)cc2OCc2ccccc2)C[C@@H]2CC[C@H]1N2C(=O)NCc1cccc(C(F)(F)F)c1 | inconclusive: 3.98 µM [inhibitor, full curve] | 
4 | CCN1C(=O)c2ccccc2Sc2ccc(NC(=O)Cc3ccc(OC)c(OC)c3)cc21 | inconclusive: 1.26 µM [inhibitor, full curve, poor fit] | 
5 | CN1C(=O)C(=Cc2cn(CC(=O)N3CCCCC3)c3ccccc23)C(=O)N(C)C1=O | inconclusive: 39.8 µM [inhibitor, partial curve] | 
6 | CC(=O)Nc1ccc(C=C2C(=O)NC(=O)NC2=O)cc1 |  | inactive: 0.572%
7 | Cn1nc(-c2ccc(C(=O)Nc3ccc(OC(F)(F)F)cc3)cc2)c2ccccc2c1=O | inconclusive: 50.1 µM [inhibitor, partial curve, poor fit] | 
8 | O=[N+]([O-])c1ccccc1CNCCc1c[nH]c2ccccc12 | inconclusive: 4.47 µM [inhibitor, single point] | 
9 | CN1C(=O)/C(=C/c2cccn2-c2ccc3ccccc3c2)C(=O)NC1=S |  | inactive: -17.8%
10 | CCN(CCCl)Cc1ccccc1Br |  | inactive: -22.7%
11 | CCN(CC)c1ccc(N=Cc2c(O)n(Cc3ccco3)c(=O)[nH]c2=O)cc1 | inconclusive: 31.6 µM [inhibitor, partial curve, poor fit] | 
12 | COc1ccc(OC)c(-n2c(O)c(/C=C3\C(C)=Nc4ccccc43)c(=O)[nH]c2=O)c1 | inconclusive: 5.01 µM [inhibitor, partial curve] | 
13 | CCCCc1ccc(NC(=O)c2cccn(Cc3ccc(Cl)cc3)c2=O)cc1 |  | inactive: -8.07%
14 | CC(C)C(=O)Nc1ccc([N+](=O)[O-])c(C(F)(F)F)c1 | inconclusive: 50.1 µM [inhibitor, partial curve, poor fit] | 
15 | COc1cc(/C=C/C(=O)c2c(O)n(CCc3ccccc3)c(=O)[nH]c2=O)ccc1O | inconclusive: 50.1 µM [inhibitor, partial curve, poor fit] | 
16 | CCOP(=O)(OCC)C(NC(=O)C(Cl)Cl)C(Cl)(Cl)Cl (configuration not stated) |  | inactive: -2.94%
17 | Cc1ccccc1C1CC(=O)Nc2ccc3ccccc3c21 (configuration not stated) | inconclusive: 50.1 µM [inhibitor, partial curve, poor fit] | 

For convenience, some entries already given.
Row | Structure (SMILES) | Potency | activity change, negative = inhibition
8 | O=[N+]([O-])c1ccccc1CNCCc1c[nH]c2ccccc12 | inconclusive: 4.47 µM [inhibitor, single point] | 
9 | CN1C(=O)/C(=C/c2cccn2-c2ccc3ccccc3c2)C(=O)NC1=S |  | inactive: -17.8%
10 | CCN(CCCl)Cc1ccccc1Br |  | inactive: -22.7%
11 | CCN(CC)c1ccc(N=Cc2c(O)n(Cc3ccco3)c(=O)[nH]c2=O)cc1 | inconclusive: 31.6 µM [inhibitor, partial curve, poor fit] | 
